Reference: the supplement of paper PMC12823440, “Inhibitors supercharge kinase turnover through native proteolytic circuits” (Nature, 2025)
Structures can show the parent of a compound that is named as a salt. This is one part of the list. The calls rarely recur for the same compound in another form.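 In K562 cells expressing nanoluciferase-fused kinases, luminescence was recorded at 4 h intervals between 2 and 18 h, normalized as percent of control with DMSO at 100% and a positive control at 0%. A significant (2 sigma) signal drop marks a time point as decreased. The authors' rule for a hit is not shown and takes in more than the number of time points.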

Amino acid sequences for entries named in this document (tags omitted).
UniProt P29317, whole entry: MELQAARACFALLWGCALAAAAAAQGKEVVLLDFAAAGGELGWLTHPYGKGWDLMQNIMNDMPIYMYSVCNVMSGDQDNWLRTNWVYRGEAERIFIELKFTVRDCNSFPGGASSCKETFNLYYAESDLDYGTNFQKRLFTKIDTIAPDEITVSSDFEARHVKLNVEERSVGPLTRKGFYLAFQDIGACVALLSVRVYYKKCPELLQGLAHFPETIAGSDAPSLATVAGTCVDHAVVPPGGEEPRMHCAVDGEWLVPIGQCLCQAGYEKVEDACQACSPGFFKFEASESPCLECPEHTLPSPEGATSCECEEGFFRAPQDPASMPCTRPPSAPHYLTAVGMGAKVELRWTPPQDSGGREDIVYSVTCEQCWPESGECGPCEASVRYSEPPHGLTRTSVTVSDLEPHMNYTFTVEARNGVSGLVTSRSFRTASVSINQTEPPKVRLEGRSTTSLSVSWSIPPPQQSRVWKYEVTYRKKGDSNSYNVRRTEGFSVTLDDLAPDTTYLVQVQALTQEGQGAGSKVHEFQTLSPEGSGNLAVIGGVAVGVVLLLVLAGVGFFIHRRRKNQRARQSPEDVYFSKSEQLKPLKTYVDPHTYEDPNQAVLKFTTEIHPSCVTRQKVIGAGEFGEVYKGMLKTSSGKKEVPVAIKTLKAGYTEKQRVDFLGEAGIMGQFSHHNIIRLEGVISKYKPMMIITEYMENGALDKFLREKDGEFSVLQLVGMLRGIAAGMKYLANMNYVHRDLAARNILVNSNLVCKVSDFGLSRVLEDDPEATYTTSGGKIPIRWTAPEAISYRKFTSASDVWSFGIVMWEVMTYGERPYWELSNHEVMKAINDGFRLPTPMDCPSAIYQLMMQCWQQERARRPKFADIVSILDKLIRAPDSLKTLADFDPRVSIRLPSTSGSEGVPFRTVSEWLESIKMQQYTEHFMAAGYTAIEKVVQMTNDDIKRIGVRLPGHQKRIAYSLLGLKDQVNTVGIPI
UniProt P21860, whole entry: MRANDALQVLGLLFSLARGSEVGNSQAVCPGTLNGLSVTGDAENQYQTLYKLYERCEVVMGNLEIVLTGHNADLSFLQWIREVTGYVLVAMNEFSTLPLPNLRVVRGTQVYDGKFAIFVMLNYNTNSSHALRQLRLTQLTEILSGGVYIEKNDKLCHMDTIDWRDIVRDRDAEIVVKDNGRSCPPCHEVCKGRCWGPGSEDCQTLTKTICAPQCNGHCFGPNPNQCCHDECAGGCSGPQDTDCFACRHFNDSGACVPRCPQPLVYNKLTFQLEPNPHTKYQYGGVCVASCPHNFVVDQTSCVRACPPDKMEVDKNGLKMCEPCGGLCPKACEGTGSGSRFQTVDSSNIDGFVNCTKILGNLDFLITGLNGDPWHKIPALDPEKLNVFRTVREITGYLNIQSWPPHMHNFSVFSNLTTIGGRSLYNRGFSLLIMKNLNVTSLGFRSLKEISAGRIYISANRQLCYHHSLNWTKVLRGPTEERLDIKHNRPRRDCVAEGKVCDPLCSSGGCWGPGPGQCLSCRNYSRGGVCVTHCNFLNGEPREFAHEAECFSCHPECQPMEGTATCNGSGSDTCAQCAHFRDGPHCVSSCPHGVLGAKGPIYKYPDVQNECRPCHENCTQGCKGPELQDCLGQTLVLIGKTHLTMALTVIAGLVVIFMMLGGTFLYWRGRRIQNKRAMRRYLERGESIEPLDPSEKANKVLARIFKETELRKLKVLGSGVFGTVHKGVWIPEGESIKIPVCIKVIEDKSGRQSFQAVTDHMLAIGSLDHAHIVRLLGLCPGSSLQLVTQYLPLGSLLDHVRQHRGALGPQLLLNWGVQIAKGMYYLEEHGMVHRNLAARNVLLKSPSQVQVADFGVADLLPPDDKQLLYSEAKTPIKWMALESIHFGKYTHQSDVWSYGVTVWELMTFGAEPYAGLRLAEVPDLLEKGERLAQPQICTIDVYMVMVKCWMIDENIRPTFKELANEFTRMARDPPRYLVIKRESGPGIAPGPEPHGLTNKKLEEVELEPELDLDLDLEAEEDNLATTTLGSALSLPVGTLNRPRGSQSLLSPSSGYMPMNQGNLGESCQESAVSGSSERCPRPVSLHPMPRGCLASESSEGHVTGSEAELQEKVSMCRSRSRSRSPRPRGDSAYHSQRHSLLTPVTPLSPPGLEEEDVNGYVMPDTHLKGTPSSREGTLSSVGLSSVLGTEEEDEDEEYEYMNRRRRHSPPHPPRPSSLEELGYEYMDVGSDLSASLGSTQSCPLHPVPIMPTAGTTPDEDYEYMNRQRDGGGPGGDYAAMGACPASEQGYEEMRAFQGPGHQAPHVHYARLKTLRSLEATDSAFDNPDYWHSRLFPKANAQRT
UniProt Q15303, whole entry R711C: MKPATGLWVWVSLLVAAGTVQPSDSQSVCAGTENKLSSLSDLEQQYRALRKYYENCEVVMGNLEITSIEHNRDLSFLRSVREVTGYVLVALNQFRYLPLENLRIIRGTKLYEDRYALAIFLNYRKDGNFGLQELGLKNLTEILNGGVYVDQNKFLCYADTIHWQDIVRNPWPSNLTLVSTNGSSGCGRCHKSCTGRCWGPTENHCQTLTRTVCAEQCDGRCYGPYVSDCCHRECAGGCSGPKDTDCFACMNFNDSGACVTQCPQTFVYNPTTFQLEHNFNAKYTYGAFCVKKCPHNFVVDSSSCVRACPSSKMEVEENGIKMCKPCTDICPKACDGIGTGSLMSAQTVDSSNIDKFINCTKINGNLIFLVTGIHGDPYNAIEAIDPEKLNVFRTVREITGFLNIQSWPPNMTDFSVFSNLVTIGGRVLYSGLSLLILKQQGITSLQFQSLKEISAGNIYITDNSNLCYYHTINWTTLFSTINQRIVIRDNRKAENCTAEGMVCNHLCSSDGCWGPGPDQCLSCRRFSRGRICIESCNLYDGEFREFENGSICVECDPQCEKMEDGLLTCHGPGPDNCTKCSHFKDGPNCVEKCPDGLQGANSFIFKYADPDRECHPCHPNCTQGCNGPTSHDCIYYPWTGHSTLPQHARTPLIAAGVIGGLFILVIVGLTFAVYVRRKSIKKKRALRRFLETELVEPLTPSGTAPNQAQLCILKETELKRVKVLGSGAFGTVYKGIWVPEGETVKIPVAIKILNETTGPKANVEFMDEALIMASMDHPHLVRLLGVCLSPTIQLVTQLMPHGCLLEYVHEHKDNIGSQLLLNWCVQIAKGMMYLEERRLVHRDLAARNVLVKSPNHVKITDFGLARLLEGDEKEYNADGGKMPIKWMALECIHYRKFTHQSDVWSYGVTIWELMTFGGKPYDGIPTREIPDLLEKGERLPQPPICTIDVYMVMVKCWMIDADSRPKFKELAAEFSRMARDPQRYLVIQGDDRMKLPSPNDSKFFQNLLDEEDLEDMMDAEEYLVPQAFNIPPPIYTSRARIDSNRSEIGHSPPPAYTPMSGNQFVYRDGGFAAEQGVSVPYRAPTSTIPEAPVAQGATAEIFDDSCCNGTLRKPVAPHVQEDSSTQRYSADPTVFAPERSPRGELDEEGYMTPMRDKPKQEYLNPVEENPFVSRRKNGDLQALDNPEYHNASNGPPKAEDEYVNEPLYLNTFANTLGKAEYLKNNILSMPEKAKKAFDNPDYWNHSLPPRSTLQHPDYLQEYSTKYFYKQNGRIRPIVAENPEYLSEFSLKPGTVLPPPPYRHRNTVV

Tests used:
Assay in all cases: kinase-Nluc reporter destabilization hit call (1 = scored as downregulated) (binary); higher = compound decreases kinase abundance
Settings in all cases: K562; 2-18 h
[1] = target: EPHA2 (UniProt P29317)
[2] = target: ERBB3 (UniProt P21860)
[3] = target: ERBB4_R711C (clone: ERBB4_mut) (UniProt Q15303)
[4] = target: EGFR (UniProt P00533)
[5] = target: EGFR_G719S (UniProt P00533)
[6] = target: EGFR_G719S_T790M (UniProt P00533)
[7] = target: EGFR_L718V (UniProt P00533)
[8] = target: EGFR_L858R (UniProt P00533)
[9] = target: EGFR_L861Q (UniProt P00533)
[10] = target: EGFR_T790M (UniProt P00533)

Measured: kinase-Nluc reporter destabilization hit call

C[C@@H]1CCN(C(=O)CC#N)C[C@@H]1N(C)c1ncnc2[nH]ccc12 [Tofacitinib] (10 µM)
inactive: [1] 0 | [2] 0 | [3] 0

Cc1nc2sccn2c(=O)c1CCN1CCC(=C(c2ccccc2)c2ccc(F)cc2)CC1 (10 µM)
inactive: [4] 0 | [5] 0 | [6] 0 | [7] 0 | [8] 0 | [9] 0 | [10] 0 | [1] 0 | [2] 0 | [3] 0

O=c1cc(CN2CCOCC2)occ1OCCCCCSc1ccnc2cc(C(F)(F)F)ccc12 (10 µM)
inactive: [4] 0 | [5] 0 | [6] 0 | [7] 0 | [8] 0 | [9] 0 | [10] 0 | [1] 0 | [2] 0 | [3] 0

CC1=C(C(=O)O)N2C(=O)[C@@H](NC(=O)[C@H](N)C3=CCC=CC3)[C@H]2SC1 [Cephradine] (10 µM)
inactive: [4] 0 | [5] 0 | [6] 0 | [7] 0 | [8] 0 | [9] 0 | [10] 0 | [1] 0 | [2] 0 | [3] 0

CC#CC(=O)N1CC[C@@H](n2c(=O)n(-c3ccc(Oc4ccccc4)cc3)c3c(N)ncnc32)C1 [Tirabrutinib] (10 µM)
inactive: [4] 0 | [5] 0 | [6] 0 | [7] 0 | [8] 0 | [9] 0 | [10] 0 | [1] 0 | [2] 0 | [3] 0

Reprinted from the listing (3 entries):
Cc1nc2sccn2c(=O)c1CCN1CCC(=C(c2ccccc2)c2ccc(F)cc2)CC1 (10 µM)
inactive: [4] 0 | [5] 0 | [6] 0 | [7] 0 | [8] 0 | [9] 0 | [10] 0 | [1] 0 | [2] 0 | [3] 0

O=c1cc(CN2CCOCC2)occ1OCCCCCSc1ccnc2cc(C(F)(F)F)ccc12 (10 µM)
inactive: [4] 0 | [5] 0 | [6] 0 | [7] 0 | [8] 0 | [9] 0 | [10] 0 | [1] 0 | [2] 0 | [3] 0

CC1=C(C(=O)O)N2C(=O)[C@@H](NC(=O)[C@H](N)C3=CCC=CC3)[C@H]2SC1 [Cephradine] (10 µM)
inactive: [4] 0 | [5] 0 | [6] 0 | [7] 0 | [8] 0 | [9] 0 | [10] 0 | [1] 0 | [2] 0 | [3] 0

Next part.

Cc1[nH]c(/C=C2\C(=O)Nc3ccccc32)c(C)c1CCC(=O)O [Orantinib] (10 µM)
inactive: [1] 0 | [2] 0 | [3] 0

O=C(NCCN1CCOCC1)c1cc2c(Oc3ccc(NC(=O)C4(C(=O)Nc5ccc(F)cc5)CC4)cc3)ccnc2[nH]1 [Tyrosine kinase inhibitor] (10 µM)
inactive: [4] 0 | [5] 0 | [6] 0 | [7] 0 | [8] 0 | [9] 0 | [10] 0 | [1] 0 | [2] 0 | [3] 0

Cc1cc(=O)oc2c(C=O)c(O)ccc12 (10 µM)
inactive: [4] 0 | [5] 0 | [6] 0 | [7] 0 | [8] 0 | [9] 0 | [10] 0 | [1] 0 | [2] 0 | [3] 0

C[C@]1(O)CCN(c2nc(N3C[C@H](O)[C@@H](O)C3)cc(C(F)(F)F)c2C#N)C1 (10 µM)
inactive: [4] 0 | [5] 0 | [6] 0 | [7] 0 | [8] 0 | [9] 0 | [10] 0 | [1] 0 | [2] 0 | [3] 0

C=CC(=O)Nc1ccc(CN2C(=O)N(c3cc(OC)cc(OC)c3)Cc3cnc(Nc4ccc(N5CCN(C)CC5)cc4)nc32)cc1 (2.5 µM)
inactive: [4] 0 | [5] 0 | [6] 0 | [7] 0 | [8] 0 | [9] 0 | [10] 0 | [1] 0 | [2] 0 | [3] 0

Cc1c(NC(=O)c2cccn(-c3ccc(F)cc3)c2=O)ccc(Oc2ccnc(NC(=O)C3CC3)c2)c1C (2 µM)
inactive: [4] 0 | [5] 0 | [6] 0 | [7] 0 | [8] 0 | [9] 0 | [10] 0 | [1] 0 | [2] 0 | [3] 0

Cc1cc2ncc(-c3ccc(O)c(O)c3)nc2cc1C [Tyrphostin AG1433] (10 µM)
inactive: [4] 0 | [5] 0 | [6] 0 | [7] 0 | [8] 0 | [9] 0 | [10] 0 | [1] 0 | [2] 0 | [3] 0

COc1cc2c(N3CCN(C(=O)Nc4ccc(OC(C)C)cc4)CC3)ncnc2cc1OCCCN1CCCCC1 [Tandutinib] (10 µM)
inactive: [1] 0 | [2] 0 | [3] 0

COc1ccc(-c2ccc3c(N4CCOCC4)nc(N4C[C@@H](C)O[C@@H](C)C4)nc3n2)cc1CO (2.5 µM)
inactive: [4] 0 | [5] 0 | [6] 0 | [7] 0 | [8] 0 | [9] 0 | [10] 0 | [1] 0 | [2] 0 | [3] 0

C[C@@H]1CCN(C(=O)CC#N)C[C@@H]1N(C)c1ncnc2[nH]ccc12 [Tofacitinib (citrate)] (10 µM)
inactive: [1] 0 | [2] 0 | [3] 0

Cc1cccc(-c2[nH]ncc2-c2ccc(F)c(-c3cnn(CCO)c3)c2)n1 (10 µM)
inactive: [4] 0 | [5] 0 | [6] 0 | [7] 0 | [8] 0 | [9] 0 | [10] 0 | [1] 0 | [2] 0 | [3] 0

N#Cc1c(C2CCNCC2)cc(-c2c(O)cccc2OCC2CC2)nc1N [ACHP (Hydrochloride)] (10 µM)
inactive: [4] 0 | [5] 0 | [6] 0 | [7] 0 | [8] 0 | [9] 0 | [10] 0 | [1] 0 | [2] 0 | [3] 0

C=CC(=O)Nc1cccc(Nc2nc(Nc3ccc(N4CCN(C(C)=O)CC4)cc3OC)ncc2C(F)(F)F)c1 [Rociletinib] (10 µM)
inactive: [4] 0 | [5] 0 | [6] 0 | [7] 0 | [8] 0 | [9] 0 | [1] 0 | [2] 0 | [3] 0

COc1cc(Nc2ncc(F)c(Nc3ccc4c(n3)NC(=O)C(C)(C)O4)n2)cc(OC)c1OC [R406 (free base)] (10 µM)
inactive: [1] 0 | [2] 0 | [3] 0

C=CC(=O)Nc1cc(C)ccc1Nc1nc(Nc2cc(OC)ncc2C)ncc1C(F)(F)F (10 µM)
inactive: [4] 0 | [5] 0 | [6] 0 | [7] 0 | [8] 0 | [9] 0 | [10] 0 | [1] 0 | [2] 0 | [3] 0

O=S(=O)(NCCCN1c2ccccc2CCc2ccc(Cl)cc21)c1ccc(OC(F)(F)F)cc1 (2.5 µM)
inactive: [4] 0 | [5] 0 | [6] 0 | [7] 0 | [8] 0 | [9] 0 | [10] 0 | [1] 0 | [2] 0 | [3] 0

Oc1cc(O)c2cc(O)c(-c3cc(O)c(O)c(O)c3)[o+]c2c1 [Delphinidin (chloride)] (10 µM)
inactive: [4] 0 | [5] 0 | [6] 0 | [7] 0 | [8] 0 | [9] 0 | [10] 0 | [1] 0 | [2] 0 | [3] 0

Cc1[nH]c(/C=C2\C(=O)Nc3ccccc32)c(C)c1CCC(=O)O [(Z)-Orantinib] (10 µM)
inactive: [1] 0 | [2] 0 | [3] 0

CCc1cc2c(cc1N1CCC(N3CCOCC3)CC1)C(C)(C)c1[nH]c3cc(C#N)ccc3c1C2=O [Alectinib (Hydrochloride)] (2 µM)
inactive: [4] 0 | [5] 0 | [6] 0 | [7] 0 | [8] 0 | [9] 0 | [10] 0 | [1] 0 | [2] 0 | [3] 0

FC(F)c1nc2ccccc2n1-c1nc(N2CCOCC2)nc(N2CCOCC2)n1 (2 µM)
inactive: [4] 0 | [5] 0 | [6] 0 | [7] 0 | [8] 0 | [9] 0 | [10] 0 | [1] 0 | [2] 0 | [3] 0

Cc1ccc(C(=O)Nc2ccc(Oc3cc4cnn(C)c4cc3-c3cn[nH]c3)c(F)c2)c(=O)n1-c1ccc(F)cc1 [Merestinib] (2.5 µM)
inactive: [4] 0 | [5] 0 | [6] 0 | [7] 0 | [8] 0 | [9] 0 | [10] 0 | [1] 0 | [2] 0 | [3] 0

CCN1CCN(Cc2ccc(-c3cc4c(N[C@H](C)c5ccccc5)ncnc4[nH]3)cc2)CC1 (2.5 µM)
inactive: [4] 0 | [5] 0 | [6] 0 | [7] 0 | [8] 0 | [9] 0 | [10] 0 | [1] 0 | [2] 0 | [3] 0

C[C@@]1(c2ncncc2F)NC(=O)c2cc(-c3cn[nH]c3)ccc21 (10 µM)
inactive: [4] 0 | [5] 0 | [6] 0 | [7] 0 | [8] 0 | [9] 0 | [10] 0 | [1] 0 | [2] 0 | [3] 0

CC#CC(=O)Nc1ccc2ncnc(Nc3cccc(Br)c3)c2c1 (10 µM)
inactive: [1] 0 | [2] 0 | [3] 0

CN1CCN(c2cnc3c(C4CCN(C(=O)c5ccc(OC(F)(F)F)cc5N)CC4)ncnc3c2)CC1 (10 µM)
inactive: [4] 0 | [5] 0 | [6] 0 | [7] 0 | [8] 0 | [9] 0 | [10] 0 | [1] 0 | [2] 0 | [3] 0

c1cncc(CN2CCC(n3ncc4c(N5CCOCC5)nc(-c5ccc6[nH]ccc6c5)nc43)CC2)c1 (10 µM)
inactive: [4] 0 | [5] 0 | [6] 0 | [7] 0 | [8] 0 | [9] 0 | [10] 0 | [1] 0 | [2] 0 | [3] 0

COc1cc2c(N3CCN(C(=O)Nc4ccc(OC(C)C)cc4)CC3)ncnc2cc1OCCCN1CCCCC1 [Tandutinib (hydrochloride)] (10 µM)
inactive: [1] 0 | [2] 0 | [3] 0

O=C(O)CCC(=O)Nc1ccc(Br)cn1 [Bikinin] (10 µM)
inactive: [4] 0 | [5] 0 | [6] 0 | [7] 0 | [8] 0 | [9] 0 | [10] 0 | [1] 0 | [2] 0 | [3] 0
